The values that follow come from patent publication US20130156786A1.

Sequences of proteins named here, by UniProt entry; tags and fusion partners are left off. A change or cut given only in a name is not applied to a line headed by its entry.
UniProt P17301: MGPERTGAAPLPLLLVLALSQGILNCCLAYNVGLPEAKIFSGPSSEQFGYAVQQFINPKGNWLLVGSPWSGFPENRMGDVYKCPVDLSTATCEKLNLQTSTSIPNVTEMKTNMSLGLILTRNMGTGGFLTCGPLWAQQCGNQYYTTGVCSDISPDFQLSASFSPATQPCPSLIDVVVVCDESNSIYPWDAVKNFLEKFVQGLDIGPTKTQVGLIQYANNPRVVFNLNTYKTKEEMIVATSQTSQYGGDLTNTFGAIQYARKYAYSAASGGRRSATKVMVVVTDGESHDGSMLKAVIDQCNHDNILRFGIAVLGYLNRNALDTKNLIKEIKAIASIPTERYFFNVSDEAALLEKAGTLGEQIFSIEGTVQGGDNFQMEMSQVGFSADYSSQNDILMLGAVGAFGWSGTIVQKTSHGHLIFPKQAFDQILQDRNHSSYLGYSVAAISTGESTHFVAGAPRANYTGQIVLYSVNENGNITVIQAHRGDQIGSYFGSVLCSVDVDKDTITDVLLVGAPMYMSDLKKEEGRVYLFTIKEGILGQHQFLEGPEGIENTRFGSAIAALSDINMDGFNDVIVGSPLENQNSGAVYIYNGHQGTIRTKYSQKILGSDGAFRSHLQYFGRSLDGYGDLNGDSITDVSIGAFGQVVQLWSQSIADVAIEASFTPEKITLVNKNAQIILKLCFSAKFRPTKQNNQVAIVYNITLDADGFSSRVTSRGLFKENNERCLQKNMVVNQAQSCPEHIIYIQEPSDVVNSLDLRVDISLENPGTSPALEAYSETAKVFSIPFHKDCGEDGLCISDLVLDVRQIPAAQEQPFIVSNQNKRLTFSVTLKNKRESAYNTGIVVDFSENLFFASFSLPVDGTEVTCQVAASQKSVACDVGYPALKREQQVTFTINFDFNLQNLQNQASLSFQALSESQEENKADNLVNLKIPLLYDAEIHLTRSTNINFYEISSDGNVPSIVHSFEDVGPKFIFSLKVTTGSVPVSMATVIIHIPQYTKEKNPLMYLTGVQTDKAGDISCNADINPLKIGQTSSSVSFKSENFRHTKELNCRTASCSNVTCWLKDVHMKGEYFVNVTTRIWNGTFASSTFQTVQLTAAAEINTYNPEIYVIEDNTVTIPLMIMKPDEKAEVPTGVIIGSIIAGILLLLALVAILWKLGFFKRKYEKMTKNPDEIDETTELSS

Results are given in words; binding and its absence hold for the method and conditions named. Some results given as binding are weak or reduced against the parent protein; the word gives no strength. For some assays here: Where a sequence is shown, tags or fusion partners need not be part of it.

Test [1] concerns the target human integrin α2 I domain, recombinantly expressed in E. coli (human) (UniProt P17301). Briefly: SPR Biacore 3000, antibody captured by anti-human Fc, I domain as analyte. For orientation: SPR reads the build-up and loss of mass on a sensor chip optically.
Test [2] shares this target. Nature of the test: Biacore, antibody captured by anti-human Fc antibody, integrin α2 I domain as analyte.
For test [3] the target is unchanged. Nature of the test: SPR Biacore 3000 (Example 7).
Test [4] has the same target. Briefly: SPR Biacore 3000.
For test [5] the target is unchanged. Nature of the test: SPR Biacore, I domain bound to captured TMC2206.
Test [6] has the same target. Nature of the test: SPR Biacore, I domain bound to TMC2206 captured on anti-human Fc.
Test [7] shares this target. Briefly: Biacore, non-humanized Fab injected over integrin I domain pre-bound by captured TMC2206.
The target is the same in test [8]. Nature of the test: Biacore, Fab immobilised on a CM5 chip by amine coupling, integrin I domain captured by the Fab.
The target is the same in test [9]. Nature of the test: SPR Biacore, I domain captured on immobilised non-humanized Fab.
Test [10] has the same target. Briefly: Biacore, TMC2206 captured on anti-human Fc antibody (MAB 1302), integrin I domain injected.
For test [11] the target is unchanged. Briefly: Biacore, TMC2206 injected over integrin I domain pre-bound by the immobilised non-humanized Fab.

B1: humanized anti-α2-integrin mAb LC5/HC7 (antibody, IgG4, V domains shown)
VH: QVQLVQSGAEVKKPGASVKVSCKASGYTFTSYWMNWVRQAPGQGLEWIGRIDPSDSETHYAQKFQGRATLTVDKSTSTAYMELSSLRSEDTAVYYCAKVGRGYFDYWGQGTLVTVSS
VL: NIVLTQSPASLAVSPGQRATITCRASESVESYGNSFIYWYQQKPGQPPKLLIYLASNLASGVPARFSGSGSRTDFTLTINPVEADDTANYYCQQNNEDPYTFGGGTKLEIK
On to B1, for which the binding result in test [1] and in [2] was “binds” in each case.

B2: humanized anti-α2-integrin mAb LC4/HC5 (antibody, IgG4, V domains shown)
VH: QVQLHQPGAELVKPGASVKLSCKASGYTFTSYWMNWVKQRPGRGLEWIGRIDPSESETHYNQKFKDKATLTVDKSSSTAYIQLSSLTSEDSAVYYCAKVGRGYFDYWGQGTTLTVVS
VL: NIVLTQSPSSLSVSVGQRATISCRASESVESYGQSFIYWYQQKPGQAPKLLIYLASNLASGVPARFSGSGSRTDFTLTIDPVQAEDAATYYCQQNNEDPYTFGGGTKLEIK
Consider B2, for which the binding result in [3] and in [2] was “binds” throughout.

B3: humanized anti-α2-integrin mAb LC3/HC4 (antibody, IgG4, V domains shown)
VH: QVQLHQPGAELVKPGASVKLSCKASGYTFTSYWMNWVKQRPGRGLEWIGRIDPSDSETHYNQKFKDKATLTVDKSSSTAYIQLSSLTSEDSAKYYCAKVGRGYFDYWGQGTTLTVVS
VL: NIVLTQSPSSLSVSVGQRATISCRASESVESYGNSFIYWYQQKPGQAPKLLIYLASNLASGVPARFSGSGSRTDFTLTIDPVQAEDAATYYCQQNNEDPYTFGGGTKLEIK
As to B3, the binding result in test [1] and in test [2] was “binds” throughout.

B4: humanized anti-α2-integrin mAb LC1/HC1 (antibody, IgG4, V domains shown)
VH: QVQLHQPGAELVKPGAPVKLSCKASGYTFTSYWMNWVKQRPGQGLEWIGRIDPSDSETHYNQKFKDRATLTVDKSSSTAYIQLSSLTSEDSAVYYCAKVGRGYFDYWGQGTTLTVVS
VL: NIVLTQSPSSLAVSVGQRATISCRASESVESYGNSFIYWYQQKPGKAPKLLIYLASNLASGVPARFSGSGSRTDFTLTIDPVQADDAATYYCQQNNEDPYTFGGGTKLEIK
Consider B4, for which the binding entry in test [1] and in [2] was “binds” throughout.

B5: humanized anti-α2-integrin mAb LC4/HC6 (antibody, IgG4, V domains shown)
VH: QVQLHQPGAELVKPGASVKLSCKASGYTFTSYWMNWVKQRPGRGLEWIGRIDPSESETHYNQKFKDKATLTVDKSSSTAYIQLSSLTSEDSAKYYCAKVGRGYFDYWGQGTTLTVVS
VL: NIVLTQSPSSLSVSVGQRATISCRASESVESYGQSFIYWYQQKPGQAPKLLIYLASNLASGVPARFSGSGSRTDFTLTIDPVQAEDAATYYCQQNNEDPYTFGGGTKLEIK
Regarding B5, the binding entry in [3] and in test [2] was “binds” in each case.

B6: humanized anti-α2-integrin mAb LC3/HC3 (antibody, IgG4, V domains shown)
VH: QVQLHQPGAELVKPGASVKLSCKASGYTFTSYWMNWVKQRPGRGLEWIGRIDPSDSETHYNQKFKDKATLTVDKSSSTAYIQLSSLTSEDSAVYYCAKVGRGYFDYWGQGTTLTVVS
VL: NIVLTQSPSSLSVSVGQRATISCRASESVESYGNSFIYWYQQKPGQAPKLLIYLASNLASGVPARFSGSGSRTDFTLTIDPVQAEDAATYYCQQNNEDPYTFGGGTKLEIK
For B6, the binding result in test [1] and in test [2] was “binds” each time.

B7: chimeric anti α2-integrin-Fab (6xHis tagged CH1 of human IGHG1) (Fab, V domains shown)
VH: QVQLHQPGAELVKPGAPVKLSCKASGYTFTSYWMNWVKQRPGRGLEWIGRIDPSDSETHYNQKFKDKATLTVDKSSSTAYIQLSSLTSEDSAVYYCAKVGRGYFDYWGQGTTLTVSS
VL: NIVLTQSPASLAVSLGQRATISCRASESVESYGNSFIYWYQQKPGQAPKLLIYLASNLASGVPARFSGSGSRTDFTLTIDPVEADDAATYYCQQNNEDPYTFGGGTKLEIKR
As to B7, the binding entry in test [4], in test [5], in [6], in test [7] and in test [8] was “binds” in each case.

B8: humanized anti-α2-integrin mAb LC2/HC2 (antibody, IgG4, V domains shown)
VH: QVQLHQPGAELVKPGAPVKLSCKASGYTFTSYWMNWVKQRPGQGLEWIGRIDPSESETHYNQKFKDRATLTVDKSSSTAYIQLSSLTSEDSAVYYCAKVGRGYFDYWGQGTTLTVVS
VL: NIVLTQSPSSLAVSVGQRATISCRASESVESYGQSFIYWYQQKPGKAPKLLIYLASNLASGVPARFSGSGSRTDFTLTIDPVQADDAATYYCQQNNEDPYTFGGGTKLEIK
Turning to B8, the binding entry in test [3] and in [2] was “binds” throughout.

B9: TMC2206, humanized hIgG4 anti-alpha 2 integrin antibody (comparator) (antibody, V domains shown)
VH: QVQLQESGPGLVKPSETLSLTCTVSGFSLTNYGIHWIRQPPGKGLEWLGVIWARGFTNYNSALMSRLTISKDNSKNQVSLKLSSVTAADTAVYYCARANDGVYYAMDYWGQGTLVTVSS
VL: DFVMTQSPAFLSVTPGEKVTITCSAQSSVNYIHWYQQKPDQAPKKLIYDTSKLASGVPSRFSGSGSGTDYTFTISSLEAEDAATYYCQQWTTNPLTFGQGTKVEIKR
Take B9: the binding result in [9], in test [2], in test [10] and in test [11] was “binds” throughout.
